Experimental data from the supplement of paper PMC12823440, “Inhibitors supercharge kinase turnover through native proteolytic circuits” (Nature, 2025).
Some of the results follow. Hit calls seldom repeat between salt and free forms of one compound.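 Kinases, fused to nanoluciferase, were expressed in K562 cells; luminescence was measured every 4 h from 2 to 18 h as percent of control (DMSO = 100%, positive control = 0%). A time point is decreased if signal falls significantly (2 sigma). Hits were called by the authors by a rule that is not shown; the count of time points alone does not decide it.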

Protein sequences, listed by entry. Tags and fused reporters are not part of them. Lines headed by an entry give the natural chain unless they say otherwise; changes in a name come on top.
UniProt O15530: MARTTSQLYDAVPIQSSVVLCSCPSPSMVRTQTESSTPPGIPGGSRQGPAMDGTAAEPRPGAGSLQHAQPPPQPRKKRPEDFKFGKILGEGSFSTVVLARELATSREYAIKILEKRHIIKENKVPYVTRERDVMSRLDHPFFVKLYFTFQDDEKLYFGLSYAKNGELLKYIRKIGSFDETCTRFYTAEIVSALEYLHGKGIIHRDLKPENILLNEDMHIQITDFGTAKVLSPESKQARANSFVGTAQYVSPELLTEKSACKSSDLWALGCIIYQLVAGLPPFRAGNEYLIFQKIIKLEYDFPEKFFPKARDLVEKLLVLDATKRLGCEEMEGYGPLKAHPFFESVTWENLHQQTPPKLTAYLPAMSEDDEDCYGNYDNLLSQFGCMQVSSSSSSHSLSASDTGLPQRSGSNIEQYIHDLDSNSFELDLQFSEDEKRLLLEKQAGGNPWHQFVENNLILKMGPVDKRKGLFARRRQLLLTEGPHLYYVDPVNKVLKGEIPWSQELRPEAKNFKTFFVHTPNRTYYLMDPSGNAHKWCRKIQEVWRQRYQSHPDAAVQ
UniProt Q9UBF8: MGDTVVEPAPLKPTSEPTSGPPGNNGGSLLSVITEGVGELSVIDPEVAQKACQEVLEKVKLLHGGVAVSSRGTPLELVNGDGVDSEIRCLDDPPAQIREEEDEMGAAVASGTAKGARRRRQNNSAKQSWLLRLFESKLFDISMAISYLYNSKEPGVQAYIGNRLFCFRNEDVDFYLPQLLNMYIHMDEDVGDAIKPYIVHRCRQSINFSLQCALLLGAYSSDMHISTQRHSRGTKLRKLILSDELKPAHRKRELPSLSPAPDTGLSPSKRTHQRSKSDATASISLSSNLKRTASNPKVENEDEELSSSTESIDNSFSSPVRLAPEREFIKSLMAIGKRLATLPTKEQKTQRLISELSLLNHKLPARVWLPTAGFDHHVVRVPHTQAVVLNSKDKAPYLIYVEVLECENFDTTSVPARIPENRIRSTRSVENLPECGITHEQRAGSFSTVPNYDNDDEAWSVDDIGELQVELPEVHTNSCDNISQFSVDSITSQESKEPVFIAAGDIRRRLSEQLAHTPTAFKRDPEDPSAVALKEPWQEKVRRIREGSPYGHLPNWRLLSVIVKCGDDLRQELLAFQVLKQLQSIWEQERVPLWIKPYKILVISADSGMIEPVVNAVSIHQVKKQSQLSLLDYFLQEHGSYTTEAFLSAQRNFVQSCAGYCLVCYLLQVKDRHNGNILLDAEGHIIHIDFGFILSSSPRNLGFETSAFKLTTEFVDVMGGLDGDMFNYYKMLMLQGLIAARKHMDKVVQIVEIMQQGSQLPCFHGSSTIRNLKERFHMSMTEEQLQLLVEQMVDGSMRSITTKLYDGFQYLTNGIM
UniProt Q13131: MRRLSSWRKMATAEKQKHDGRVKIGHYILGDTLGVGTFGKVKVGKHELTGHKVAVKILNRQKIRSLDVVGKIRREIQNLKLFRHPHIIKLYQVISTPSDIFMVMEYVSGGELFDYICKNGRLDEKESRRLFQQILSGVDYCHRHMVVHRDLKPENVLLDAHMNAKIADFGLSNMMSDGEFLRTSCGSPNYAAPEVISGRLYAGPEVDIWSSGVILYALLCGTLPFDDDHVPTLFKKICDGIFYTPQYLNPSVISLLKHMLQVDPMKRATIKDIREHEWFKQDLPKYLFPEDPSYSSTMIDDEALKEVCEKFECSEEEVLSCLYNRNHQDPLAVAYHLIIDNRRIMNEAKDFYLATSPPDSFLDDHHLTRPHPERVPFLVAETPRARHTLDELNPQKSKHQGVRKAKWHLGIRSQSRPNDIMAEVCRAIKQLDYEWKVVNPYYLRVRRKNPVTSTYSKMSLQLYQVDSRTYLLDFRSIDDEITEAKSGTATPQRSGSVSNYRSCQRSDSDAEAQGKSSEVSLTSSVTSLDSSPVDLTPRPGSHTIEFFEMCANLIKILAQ
UniProt Q14289, whole entry, looked up: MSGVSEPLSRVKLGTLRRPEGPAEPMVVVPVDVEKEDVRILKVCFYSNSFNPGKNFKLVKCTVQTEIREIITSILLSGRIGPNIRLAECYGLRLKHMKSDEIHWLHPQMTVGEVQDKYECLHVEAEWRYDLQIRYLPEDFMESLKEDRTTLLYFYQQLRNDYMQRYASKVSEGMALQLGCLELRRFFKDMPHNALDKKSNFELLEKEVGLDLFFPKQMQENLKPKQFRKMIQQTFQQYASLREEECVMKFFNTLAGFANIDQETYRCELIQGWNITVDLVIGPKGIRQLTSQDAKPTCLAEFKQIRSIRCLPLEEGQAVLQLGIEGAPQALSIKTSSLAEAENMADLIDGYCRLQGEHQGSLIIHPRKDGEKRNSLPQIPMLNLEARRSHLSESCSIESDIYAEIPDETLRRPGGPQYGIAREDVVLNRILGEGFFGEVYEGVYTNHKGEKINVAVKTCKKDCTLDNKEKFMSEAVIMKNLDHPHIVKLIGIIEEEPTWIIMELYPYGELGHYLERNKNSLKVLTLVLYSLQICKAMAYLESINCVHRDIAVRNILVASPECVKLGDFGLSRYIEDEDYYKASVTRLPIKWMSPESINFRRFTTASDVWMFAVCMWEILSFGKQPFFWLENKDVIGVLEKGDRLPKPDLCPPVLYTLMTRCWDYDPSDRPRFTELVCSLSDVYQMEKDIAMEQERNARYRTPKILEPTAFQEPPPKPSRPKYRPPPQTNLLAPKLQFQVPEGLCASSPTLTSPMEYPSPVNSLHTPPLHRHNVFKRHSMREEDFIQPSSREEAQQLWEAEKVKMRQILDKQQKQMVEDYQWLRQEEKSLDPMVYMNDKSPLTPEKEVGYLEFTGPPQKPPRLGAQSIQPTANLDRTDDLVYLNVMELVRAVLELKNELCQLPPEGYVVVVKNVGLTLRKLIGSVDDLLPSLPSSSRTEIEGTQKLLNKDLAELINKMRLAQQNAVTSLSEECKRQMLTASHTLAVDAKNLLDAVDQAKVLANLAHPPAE
UniProt P07949, whole entry, looked up: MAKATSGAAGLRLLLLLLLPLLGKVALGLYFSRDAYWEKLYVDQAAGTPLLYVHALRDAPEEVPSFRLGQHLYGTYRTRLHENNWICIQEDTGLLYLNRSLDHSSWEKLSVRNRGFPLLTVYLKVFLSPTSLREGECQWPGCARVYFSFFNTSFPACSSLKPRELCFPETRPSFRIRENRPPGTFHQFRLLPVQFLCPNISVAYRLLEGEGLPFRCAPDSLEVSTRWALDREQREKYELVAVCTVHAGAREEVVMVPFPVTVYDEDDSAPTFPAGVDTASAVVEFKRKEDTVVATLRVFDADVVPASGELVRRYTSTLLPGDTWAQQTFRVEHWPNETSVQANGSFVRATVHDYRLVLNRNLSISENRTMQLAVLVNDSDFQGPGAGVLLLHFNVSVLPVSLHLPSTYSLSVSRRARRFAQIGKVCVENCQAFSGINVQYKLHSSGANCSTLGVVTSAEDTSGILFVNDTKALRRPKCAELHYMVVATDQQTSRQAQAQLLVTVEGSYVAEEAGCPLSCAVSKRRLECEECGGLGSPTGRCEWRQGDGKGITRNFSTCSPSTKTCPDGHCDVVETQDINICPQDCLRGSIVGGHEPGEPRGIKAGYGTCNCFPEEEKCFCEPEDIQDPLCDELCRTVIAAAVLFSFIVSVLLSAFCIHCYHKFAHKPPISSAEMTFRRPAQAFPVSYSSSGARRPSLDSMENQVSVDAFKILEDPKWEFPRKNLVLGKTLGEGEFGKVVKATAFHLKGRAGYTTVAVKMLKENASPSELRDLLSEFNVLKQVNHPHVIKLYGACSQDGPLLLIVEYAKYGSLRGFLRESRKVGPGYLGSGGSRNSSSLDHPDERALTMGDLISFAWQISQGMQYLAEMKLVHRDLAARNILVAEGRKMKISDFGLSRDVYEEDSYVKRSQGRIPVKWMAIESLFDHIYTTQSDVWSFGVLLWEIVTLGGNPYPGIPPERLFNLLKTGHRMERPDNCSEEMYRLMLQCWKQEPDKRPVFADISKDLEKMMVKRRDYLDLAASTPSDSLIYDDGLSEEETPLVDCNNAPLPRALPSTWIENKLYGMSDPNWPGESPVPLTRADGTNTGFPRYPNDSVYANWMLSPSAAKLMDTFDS
UniProt P07949, whole entry M918T, looked up: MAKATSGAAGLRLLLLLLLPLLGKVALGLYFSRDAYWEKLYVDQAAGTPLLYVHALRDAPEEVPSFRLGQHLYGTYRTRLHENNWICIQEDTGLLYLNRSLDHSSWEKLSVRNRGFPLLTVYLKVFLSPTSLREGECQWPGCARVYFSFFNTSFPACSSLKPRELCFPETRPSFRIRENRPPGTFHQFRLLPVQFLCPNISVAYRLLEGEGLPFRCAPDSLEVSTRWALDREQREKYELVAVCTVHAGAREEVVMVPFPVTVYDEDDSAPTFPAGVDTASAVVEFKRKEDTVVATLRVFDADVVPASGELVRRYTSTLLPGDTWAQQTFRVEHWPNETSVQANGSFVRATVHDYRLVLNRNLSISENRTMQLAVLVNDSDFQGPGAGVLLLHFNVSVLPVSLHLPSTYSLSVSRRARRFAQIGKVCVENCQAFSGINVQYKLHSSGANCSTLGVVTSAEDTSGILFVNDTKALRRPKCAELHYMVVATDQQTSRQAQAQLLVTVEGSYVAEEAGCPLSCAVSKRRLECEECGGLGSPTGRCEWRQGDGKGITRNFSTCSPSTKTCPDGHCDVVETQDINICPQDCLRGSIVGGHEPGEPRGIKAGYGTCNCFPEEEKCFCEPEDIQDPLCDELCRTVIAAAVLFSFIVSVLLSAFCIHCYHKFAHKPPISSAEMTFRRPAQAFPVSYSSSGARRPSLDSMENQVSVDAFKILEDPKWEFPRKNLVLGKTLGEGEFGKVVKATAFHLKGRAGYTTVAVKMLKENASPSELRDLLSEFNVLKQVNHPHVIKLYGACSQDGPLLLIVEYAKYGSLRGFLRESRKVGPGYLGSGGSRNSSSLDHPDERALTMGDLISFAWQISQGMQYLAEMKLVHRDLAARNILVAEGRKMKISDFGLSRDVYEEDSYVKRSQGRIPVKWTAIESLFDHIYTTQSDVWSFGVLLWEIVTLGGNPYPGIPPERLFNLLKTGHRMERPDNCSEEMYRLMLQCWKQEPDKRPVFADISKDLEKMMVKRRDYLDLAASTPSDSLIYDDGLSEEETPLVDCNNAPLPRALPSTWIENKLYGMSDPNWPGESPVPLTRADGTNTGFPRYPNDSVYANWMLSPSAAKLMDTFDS
UniProt Q13546: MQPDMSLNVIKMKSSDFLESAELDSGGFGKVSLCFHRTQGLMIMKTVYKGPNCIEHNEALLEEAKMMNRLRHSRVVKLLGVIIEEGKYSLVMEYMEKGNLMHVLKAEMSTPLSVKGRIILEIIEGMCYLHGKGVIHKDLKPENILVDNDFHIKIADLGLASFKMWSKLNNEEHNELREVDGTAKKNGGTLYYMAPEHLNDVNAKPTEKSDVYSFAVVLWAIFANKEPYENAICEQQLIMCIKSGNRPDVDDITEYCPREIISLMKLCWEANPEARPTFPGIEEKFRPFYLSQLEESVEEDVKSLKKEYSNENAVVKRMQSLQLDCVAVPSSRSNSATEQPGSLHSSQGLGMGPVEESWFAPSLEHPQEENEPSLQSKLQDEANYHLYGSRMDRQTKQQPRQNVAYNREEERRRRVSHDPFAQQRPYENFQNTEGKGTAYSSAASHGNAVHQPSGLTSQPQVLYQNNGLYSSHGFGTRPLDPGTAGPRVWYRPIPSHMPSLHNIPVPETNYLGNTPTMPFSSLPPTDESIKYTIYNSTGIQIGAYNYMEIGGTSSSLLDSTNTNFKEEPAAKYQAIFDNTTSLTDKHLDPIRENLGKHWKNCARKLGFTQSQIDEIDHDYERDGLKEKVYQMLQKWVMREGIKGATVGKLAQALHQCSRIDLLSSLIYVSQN
UniProt Q15418, whole entry: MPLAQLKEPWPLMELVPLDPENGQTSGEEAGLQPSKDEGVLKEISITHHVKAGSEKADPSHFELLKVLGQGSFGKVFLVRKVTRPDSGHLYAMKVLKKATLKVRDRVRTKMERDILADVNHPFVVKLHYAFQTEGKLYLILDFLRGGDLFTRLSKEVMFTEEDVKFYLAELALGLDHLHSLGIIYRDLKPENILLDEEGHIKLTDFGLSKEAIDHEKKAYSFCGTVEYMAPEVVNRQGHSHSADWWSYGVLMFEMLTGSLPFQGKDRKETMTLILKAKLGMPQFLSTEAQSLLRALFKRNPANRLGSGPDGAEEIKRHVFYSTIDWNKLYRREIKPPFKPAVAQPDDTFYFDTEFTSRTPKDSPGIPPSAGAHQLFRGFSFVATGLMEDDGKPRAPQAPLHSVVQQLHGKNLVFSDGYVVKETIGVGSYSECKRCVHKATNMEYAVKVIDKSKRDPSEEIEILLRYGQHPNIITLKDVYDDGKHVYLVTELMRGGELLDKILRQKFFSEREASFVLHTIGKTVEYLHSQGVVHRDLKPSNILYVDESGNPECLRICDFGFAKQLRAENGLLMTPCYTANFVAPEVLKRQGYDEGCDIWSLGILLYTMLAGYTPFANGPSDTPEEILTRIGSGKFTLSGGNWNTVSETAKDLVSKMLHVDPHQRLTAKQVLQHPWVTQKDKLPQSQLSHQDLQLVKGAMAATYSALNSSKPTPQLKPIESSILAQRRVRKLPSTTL

Assays:
Experiment in all cases: kinase-Nluc reporter destabilization hit call (1 = scored as downregulated) (binary); higher = compound decreases kinase abundance
Settings in all cases: K562; 2-18 h
PDPK1 = PDPK1 (UniProt O15530)
PIK4CA = PIK4CA (UniProt P42356)
PIK4CB = PIK4CB (UniProt Q9UBF8)
PLK1 = PLK1 (UniProt P53350)
PRKAA1 = PRKAA1 (UniProt Q13131)
PRKCA = PRKCA (UniProt P17252)
PTK2 = PTK2 (UniProt Q05397)
PTK2B = PTK2B (UniProt Q14289)
RAF1 = RAF1 (UniProt P04049)
[1] = molecular target: RAF1_S257L (clone: RAF1_mut) (UniProt P04049)
RET = RET (UniProt P07949)
[2] = molecular target: RET_M918T (clone: RET_mut) (UniProt P07949)
RIOK1 = RIOK1 (UniProt Q9BRS2)
RIPK1 = RIPK1 (UniProt Q13546)
RIPK2 = RIPK2 (UniProt O43353)
ROR2 = ROR2 (UniProt Q01974)
RPS6KA1 = RPS6KA1 (UniProt Q15418)
SPHK1 = SPHK1 (UniProt Q9NYA1)
SRC = SRC (UniProt P12931)
STK24 = STK24 (UniProt Q9Y6E0)

Measured: kinase-Nluc reporter destabilization hit call

COc1ccc(Br)cc1NC(=O)Nc1cccc2c1ccn2Cc1ccnc(N)c1 (2.5 µM)
inactive: PDPK1 = 0 | PIK4CA 0 | PIK4CB 0 | PLK1 = 0 | PRKAA1 = 0 | PRKCA 0 | PTK2 = 0 | PTK2B 0 | RAF1 = 0 | [1] 0 | RET 0 | [2] 0 | RIOK1 = 0 | RIPK1 = 0 | RIPK2 = 0 | ROR2 = 0 | RPS6KA1 = 0 | SPHK1 = 0 | SRC 0 | STK24 = 0

O=C(Nc1cccc(-c2nc(-c3ccc(NC(=O)c4cccnc4)cc3Cl)no2)c1)Nc1ccc(NC(=O)C2CC2)c(C(F)(F)F)c1 (2.5 µM)
inactive: PDPK1 = 0 | PIK4CA 0 | PIK4CB 0 | PLK1 = 0 | PRKAA1 = 0 | PRKCA 0 | PTK2 = 0 | PTK2B 0 | RAF1 = 0 | [1] 0 | RET 0 | [2] 0 | RIOK1 = 0 | RIPK1 = 0 | RIPK2 = 0 | ROR2 = 0 | RPS6KA1 = 0 | SPHK1 = 0 | SRC 0 | STK24 = 0

O=c1cc(-c2ccccc2)oc2cc(O[C@@H]3O[C@H](CO[C@@H]4O[C@H](CO)[C@@H](O)[C@H](O)[C@H]4O)[C@@H](O)[C@H](O)[C@H]3O)c(O)c(O)c12 [Oroxin B] (10 µM)
inactive: PDPK1 = 0 | PIK4CA 0 | PIK4CB 0 | PLK1 = 0 | PRKAA1 = 0 | PRKCA 0 | PTK2 = 0 | PTK2B 0 | RAF1 = 0 | [1] 0 | RET 0 | [2] 0 | RIOK1 = 0 | RIPK1 = 0 | RIPK2 = 0 | ROR2 = 0 | RPS6KA1 = 0 | SPHK1 = 0 | SRC 0 | STK24 = 0

COC(=O)Nc1ccc(-c2nc(N3CCOCC3)c3cnn(C4CCN(C(=O)OC)CC4)c3n2)cc1 (10 µM)
inactive: PDPK1 = 0 | PIK4CA 0 | PIK4CB 0 | PLK1 = 0 | PRKAA1 = 0 | PRKCA 0 | PTK2 = 0 | PTK2B 0 | RAF1 = 0 | [1] 0 | RET 0 | [2] 0 | RIOK1 = 0 | RIPK1 = 0 | RIPK2 = 0 | ROR2 = 0 | RPS6KA1 = 0 | SPHK1 = 0 | SRC 0 | STK24 = 0

CO[C@H]1C[C@@H]2CC[C@@H](C)[C@@](O)(O2)C(=O)C(=O)N2CCCC[C@H]2C(=O)O[C@H]([C@H](C)C[C@@H]2CC[C@@H](OCCO)[C@H](OC)C2)CC(=O)[C@H](C)/C=C(\C)[C@@H](O)[C@@H](OC)C(=O)[C@H](C)C[C@H](C)/C=C/C=C/C=C/1C [Everolimus] (10 µM)
inactive: PDPK1 = 0 | PIK4CA 0 | PIK4CB 0 | PLK1 = 0 | PRKAA1 = 0 | PRKCA 0 | PTK2 = 0 | PTK2B 0 | RAF1 = 0 | [1] 0 | RET 0 | [2] 0 | RIOK1 = 0 | RIPK1 = 0 | RIPK2 = 0 | ROR2 = 0 | RPS6KA1 = 0 | SPHK1 = 0 | SRC 0 | STK24 = 0

Nc1nc(N)c2nc(-c3cccc(O)c3)c(-c3cccc(O)c3)nc2n1 (10 µM)
inactive: PDPK1 = 0 | PIK4CA 0 | PIK4CB 0 | PLK1 = 0 | PRKAA1 = 0 | PRKCA 0 | PTK2 = 0 | PTK2B 0 | RAF1 = 0 | [1] 0 | RET 0 | [2] 0 | RIOK1 = 0 | RIPK1 = 0 | RIPK2 = 0 | ROR2 = 0 | RPS6KA1 = 0 | SPHK1 = 0 | SRC 0 | STK24 = 0

C=CC(=O)Nc1cc(Nc2nccc(-c3cn(C)c4ccccc34)n2)c(OC)cc1OCCN(C)C [Rezivertinib] (2.5 µM)
inactive: PDPK1 = 0 | PIK4CA 0 | PIK4CB 0 | PLK1 = 0 | PRKAA1 = 0 | PRKCA 0 | PTK2 = 0 | PTK2B 0 | RAF1 = 0 | [1] 0 | RET 0 | [2] 0 | RIOK1 = 0 | RIPK1 = 0 | RIPK2 = 0 | ROR2 = 0 | RPS6KA1 = 0 | SPHK1 = 0 | SRC 0 | STK24 = 0

COc1cc2ncnc(Nc3cccc(I)c3)c2cc1OC (2.5 µM)
inactive: PDPK1 = 0 | PIK4CA 0 | PIK4CB 0 | PLK1 = 0 | PRKAA1 = 0 | PRKCA 0 | PTK2 = 0 | PTK2B 0 | RAF1 = 0 | [1] 0 | RET 0 | [2] 0 | RIOK1 = 0 | RIPK1 = 0 | RIPK2 = 0 | ROR2 = 0 | RPS6KA1 = 0 | SPHK1 = 0 | SRC 0 | STK24 = 0

COc1cc2nccc(Oc3ccc(NC(=O)c4cn(C(C)C)c(=O)n(-c5ccc(F)cc5)c4=O)cc3F)c2cc1OC (0.5 µM)
inactive: PDPK1 = 0 | PIK4CA 0 | PIK4CB 0 | PLK1 = 0 | PRKAA1 = 0 | PRKCA 0 | PTK2 = 0 | PTK2B 0 | RAF1 = 0 | [1] 0 | RET 0 | [2] 0 | RIOK1 = 0 | RIPK1 = 0 | RIPK2 = 0 | ROR2 = 0 | RPS6KA1 = 0 | SPHK1 = 0 | SRC 0 | STK24 = 0

Part of the list above in order of length of the SMILES, ascending.
Nc1nc(N)c2nc(-c3cccc(O)c3)c(-c3cccc(O)c3)nc2n1 (10 µM)
inactive: PDPK1 = 0 | PIK4CA 0 | PIK4CB 0 | PLK1 = 0 | PRKAA1 = 0 | PRKCA 0 | PTK2 = 0 | PTK2B 0 | RAF1 = 0 | [1] 0 | RET 0 | [2] 0 | RIOK1 = 0 | RIPK1 = 0 | RIPK2 = 0 | ROR2 = 0 | RPS6KA1 = 0 | SPHK1 = 0 | SRC 0 | STK24 = 0

COc1cc2nccc(Oc3ccc(NC(=O)c4cn(C(C)C)c(=O)n(-c5ccc(F)cc5)c4=O)cc3F)c2cc1OC (0.5 µM)
inactive: PDPK1 = 0 | PIK4CA 0 | PIK4CB 0 | PLK1 = 0 | PRKAA1 = 0 | PRKCA 0 | PTK2 = 0 | PTK2B 0 | RAF1 = 0 | [1] 0 | RET 0 | [2] 0 | RIOK1 = 0 | RIPK1 = 0 | RIPK2 = 0 | ROR2 = 0 | RPS6KA1 = 0 | SPHK1 = 0 | SRC 0 | STK24 = 0

CO[C@H]1C[C@@H]2CC[C@@H](C)[C@@](O)(O2)C(=O)C(=O)N2CCCC[C@H]2C(=O)O[C@H]([C@H](C)C[C@@H]2CC[C@@H](OCCO)[C@H](OC)C2)CC(=O)[C@H](C)/C=C(\C)[C@@H](O)[C@@H](OC)C(=O)[C@H](C)C[C@H](C)/C=C/C=C/C=C/1C [Everolimus] (10 µM)
inactive: PDPK1 = 0 | PIK4CA 0 | PIK4CB 0 | PLK1 = 0 | PRKAA1 = 0 | PRKCA 0 | PTK2 = 0 | PTK2B 0 | RAF1 = 0 | [1] 0 | RET 0 | [2] 0 | RIOK1 = 0 | RIPK1 = 0 | RIPK2 = 0 | ROR2 = 0 | RPS6KA1 = 0 | SPHK1 = 0 | SRC 0 | STK24 = 0

The list goes on.

N#Cc1ccc2ncnc(NCCc3ccccc3)c2c1 [Senexin A] (10 µM)
inactive: PDPK1 = 0 | PIK4CA 0 | PIK4CB 0 | PLK1 = 0 | PRKAA1 = 0 | PRKCA 0 | PTK2 = 0 | PTK2B 0 | RAF1 = 0 | [1] 0 | RET 0 | [2] 0 | RIOK1 = 0 | RIPK1 = 0 | RIPK2 = 0 | ROR2 = 0 | RPS6KA1 = 0 | SPHK1 = 0 | SRC 0 | STK24 = 0

Nc1ncc(-c2ccnc(Nc3ccncc3)n2)c(CC2CC2)n1 (10 µM)
inactive: PDPK1 = 0 | PIK4CA 0 | PIK4CB 0 | PLK1 = 0 | PRKAA1 = 0 | PRKCA 0 | PTK2 = 0 | PTK2B 0 | RAF1 = 0 | [1] 0 | RET 0 | [2] 0 | RIOK1 = 0 | RIPK1 = 0 | RIPK2 = 0 | ROR2 = 0 | RPS6KA1 = 0 | SPHK1 = 0 | SRC 0 | STK24 = 0

C=CC(=O)N1CCN(C(=O)CNc2cc(I)c(Cl)cc2O)CC1 [K-Ras(G12C) inhibitor 12] (10 µM)
inactive: PDPK1 = 0 | PIK4CA 0 | PIK4CB 0 | PLK1 = 0 | PRKAA1 = 0 | PRKCA 0 | PTK2 = 0 | PTK2B 0 | RAF1 = 0 | [1] 0 | RET 0 | [2] 0 | RIOK1 = 0 | RIPK1 = 0 | RIPK2 = 0 | ROR2 = 0 | RPS6KA1 = 0 | SPHK1 = 0 | SRC 0 | STK24 = 0
